Test results from the supplement of paper PMC6078165.
Values are relative to the signal before dosing, not to a vehicle control; the signal also falls without drug.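 Fibroblast labels name human fibroblasts: mostly primary ones from tissues such as uterus (C12385, HUF), lung (H6013), bone (Hs27A), adrenal (HADF) and skin (WS1), plus mammary HMF and breast cancer-associated Hs343T. The cancer cells are basal-like or mesenchymal-like triple-negative breast cancer lines. The paper calls a changed response a hit when it shifts by more than 3x the replicate standard deviation. The tissue of the other fibroblasts is not given here.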

Tested on: Hs578T
Test: relative JC-1 red fluorescence (viability) vs pre-drug, coculture with fibroblast (fraction); higher = more viable cancer cells
Method: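 JC-1 labelled TNBC cells cocultured 1:1 (1,500 cells each) with CellTrace Violet stained primary or stromal fibroblasts in 384-well plates in FluoroBrite medium, treated with one of 42 anticancer drugs at 0.1, 1, 10 or 100 uM. JC-1 red fluorescence (mitochondrial integrity in cancer cells only) was read by plate reader every 8 h for 72 h. Values are normalised to each well's pre-drug value. The stock of one drug was tenfold lower, so its dose labels may be too high.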

N.N.[Cl][Pt][Cl] [Cisplatin]
relative JC-1 red fluorescence
Details | 8 h | 16 h | 24 h | 32 h | 40 h | 48 h | 56 h | 64 h | 72 h
0.1 µM | 0.886 | 0.8056 | 0.76 | 0.711 | 0.65 | 0.606 | 0.586 | 0.547 | 0.539
1 µM | 0.877 | 0.772 | 0.721 | 0.669 | 0.603 | 0.565 | 0.548 | 0.5088 | 0.5009
10 µM | 0.916 | 0.783 | 0.714 | 0.665 | 0.599 | 0.553 | 0.521 | 0.488 | 0.48
100 µM | 0.798 | 0.506 | 0.475 | 0.454 | 0.412 | 0.383 | 0.387 | 0.362 | 0.365

relative JC-1 red fluorescence
Details | 8 h | 16 h | 24 h | 32 h | 40 h | 48 h | 56 h | 64 h | 72 h
0.1 µM, coculture fibroblast: C12385 | 0.82 | 0.748 | 0.702 | 0.622 | 0.562 | 0.537 | 0.521 | 0.517 | 0.513
0.1 µM, coculture fibroblast: H6013 | 0.87 | 0.82 | 0.777 | 0.761 | 0.737 | 0.727 | 0.71 | 0.704 | 0.685
0.1 µM, coculture fibroblast: H6019 | 0.773 | 0.688 | 0.659 | 0.563 | 0.526 | 0.503 | 0.48 | 0.467 | 0.441
0.1 µM, coculture fibroblast: H6076 | 0.9057 | 0.8383 | 0.795 | 0.769 | 0.723 | 0.717 | 0.698 | 0.692 | 0.691
0.1 µM, coculture fibroblast: H6231 | 0.872 | 0.758 | 0.703 | 0.659 | 0.603 | 0.58 | 0.541 | 0.526 | 0.517
0.1 µM, coculture fibroblast: HADF | 0.884 | 0.83 | 0.771 | 0.7156 | 0.685 | 0.664 | 0.635 | 0.631 | 0.606
0.1 µM, coculture fibroblast: HCFa | 0.861 | 0.802 | 0.739 | 0.691 | 0.641 | 0.619 | 0.589 | 0.572 | 0.536
0.1 µM, coculture fibroblast: HCPF | 0.8904 | 0.827 | 0.7882 | 0.766 | 0.723 | 0.709 | 0.694 | 0.669 | 0.662
0.1 µM, coculture fibroblast: HHSteC | 0.8374 | 0.756 | 0.682 | 0.623 | 0.565 | 0.5375 | 0.5149 | 0.4925 | 0.462
0.1 µM, coculture fibroblast: HMF | 0.9136 | 0.8405 | 0.773 | 0.74 | 0.686 | 0.658 | 0.622 | 0.611 | 0.6
0.1 µM, coculture fibroblast: HPFa | 0.8814 | 0.79459 | 0.727 | 0.6645 | 0.6242 | 0.5906 | 0.5596 | 0.533 | 0.491
0.1 µM, coculture fibroblast: HUF | 0.827 | 0.709 | 0.661 | 0.555 | 0.495 | 0.461 | 0.432 | 0.425 | 0.419
0.1 µM, coculture fibroblast: Hs27A | 0.906 | 0.867 | 0.828 | 0.805 | 0.747 | 0.738 | 0.706 | 0.702 | 0.666
0.1 µM, coculture fibroblast: Hs343T | 0.924 | 0.807 | 0.73 | 0.701 | 0.626 | 0.604 | 0.5637 | 0.545 | 0.545
0.1 µM, coculture fibroblast: WS1 | 0.809 | 0.736 | 0.733 | 0.646 | 0.601 | 0.597 | 0.582 | 0.595 | 0.605
1 µM, coculture fibroblast: C12385 | 0.811 | 0.733 | 0.6958 | 0.6116 | 0.553 | 0.528 | 0.502 | 0.4985 | 0.4987
1 µM, coculture fibroblast: H6013 | 0.8598 | 0.805 | 0.743 | 0.71 | 0.686 | 0.674 | 0.651 | 0.643 | 0.612
1 µM, coculture fibroblast: H6019 | 0.769 | 0.685 | 0.64 | 0.545 | 0.506 | 0.481 | 0.454 | 0.442 | 0.425
1 µM, coculture fibroblast: H6076 | 0.905 | 0.8261 | 0.774 | 0.739 | 0.704 | 0.692 | 0.678 | 0.666 | 0.664
1 µM, coculture fibroblast: H6231 | 0.878 | 0.798 | 0.738 | 0.693 | 0.63 | 0.602 | 0.566 | 0.545 | 0.537
1 µM, coculture fibroblast: HADF | 0.866 | 0.823 | 0.751 | 0.695 | 0.655 | 0.631 | 0.594 | 0.572 | 0.538
1 µM, coculture fibroblast: HCFa | 0.836 | 0.772 | 0.701 | 0.6321 | 0.564 | 0.54 | 0.496 | 0.475 | 0.435
1 µM, coculture fibroblast: HCPF | 0.907 | 0.816 | 0.763 | 0.722 | 0.661 | 0.637 | 0.626 | 0.581 | 0.561
1 µM, coculture fibroblast: HHSteC | 0.8415 | 0.798 | 0.74 | 0.702 | 0.663 | 0.634 | 0.618 | 0.597 | 0.564
1 µM, coculture fibroblast: HMF | 0.866 | 0.792 | 0.736 | 0.687 | 0.629 | 0.588 | 0.561 | 0.526 | 0.504
1 µM, coculture fibroblast: HPFa | 0.8707 | 0.84 | 0.794 | 0.768 | 0.762 | 0.748 | 0.718 | 0.715 | 0.679
1 µM, coculture fibroblast: HUF | 0.848 | 0.744 | 0.723 | 0.625 | 0.573 | 0.538 | 0.503 | 0.4868 | 0.4805
1 µM, coculture fibroblast: Hs27A | 0.869 | 0.843 | 0.814 | 0.763 | 0.725 | 0.713 | 0.673 | 0.665 | 0.623
1 µM, coculture fibroblast: Hs343T | 0.8727 | 0.7796 | 0.7176 | 0.684 | 0.611 | 0.576 | 0.549 | 0.528 | 0.52
1 µM, coculture fibroblast: WS1 | 0.788 | 0.69 | 0.676 | 0.579 | 0.525 | 0.512 | 0.494 | 0.497 | 0.498
10 µM, coculture fibroblast: C12385 | 0.825 | 0.7144 | 0.6509 | 0.541 | 0.469 | 0.438 | 0.4189 | 0.4082 | 0.404
10 µM, coculture fibroblast: H6013 | 0.861 | 0.783 | 0.695 | 0.639 | 0.597 | 0.582 | 0.563 | 0.556 | 0.535
10 µM, coculture fibroblast: H6019 | 0.752 | 0.694 | 0.727 | 0.626 | 0.617 | 0.625 | 0.621 | 0.628 | 0.628
10 µM, coculture fibroblast: H6076 | 0.921 | 0.828 | 0.765 | 0.731 | 0.685 | 0.668 | 0.639 | 0.637 | 0.625
10 µM, coculture fibroblast: H6231 | 0.8929 | 0.7899 | 0.718 | 0.683 | 0.619 | 0.59 | 0.546 | 0.534 | 0.52
10 µM, coculture fibroblast: HADF | 0.88 | 0.794 | 0.675 | 0.595 | 0.569 | 0.556 | 0.535 | 0.526 | 0.506
10 µM, coculture fibroblast: HCFa | 0.822 | 0.688 | 0.573 | 0.515 | 0.483 | 0.481 | 0.467 | 0.465 | 0.445
10 µM, coculture fibroblast: HCPF | 0.952 | 0.864 | 0.804 | 0.759 | 0.707 | 0.685 | 0.668 | 0.639 | 0.622
10 µM, coculture fibroblast: HHSteC | 0.854 | 0.7684 | 0.674 | 0.621 | 0.58 | 0.547 | 0.53 | 0.515 | 0.496
10 µM, coculture fibroblast: HMF | 0.87 | 0.778 | 0.7225 | 0.698 | 0.653 | 0.627 | 0.603 | 0.59 | 0.579
10 µM, coculture fibroblast: HPFa | 0.876 | 0.782 | 0.71 | 0.658 | 0.639 | 0.634 | 0.614 | 0.609 | 0.586
10 µM, coculture fibroblast: HUF | 0.828 | 0.7004 | 0.652 | 0.558 | 0.511 | 0.492 | 0.469 | 0.471 | 0.468
10 µM, coculture fibroblast: Hs27A | 0.8896 | 0.8411 | 0.7731 | 0.737 | 0.687 | 0.672 | 0.65 | 0.653 | 0.614
10 µM, coculture fibroblast: Hs343T | 0.955 | 0.867 | 0.791 | 0.752 | 0.677 | 0.661 | 0.625 | 0.598 | 0.59
10 µM, coculture fibroblast: WS1 | 0.8002 | 0.717 | 0.669 | 0.567 | 0.501 | 0.486 | 0.47 | 0.467 | 0.4686
100 µM, coculture fibroblast: C12385 | 0.693 | 0.476 | 0.45 | 0.368 | 0.343 | 0.334 | 0.322 | 0.332 | 0.335
100 µM, coculture fibroblast: H6013 | 0.739 | 0.543 | 0.476 | 0.441 | 0.409 | 0.4 | 0.378 | 0.369 | 0.354
100 µM, coculture fibroblast: H6019 | 0.682 | 0.532 | 0.541 | 0.436 | 0.398 | 0.377 | 0.355 | 0.345 | 0.333
100 µM, coculture fibroblast: H6076 | 0.869 | 0.583 | 0.502 | 0.489 | 0.449 | 0.441 | 0.426 | 0.413 | 0.413
100 µM, coculture fibroblast: H6231 | 0.846 | 0.569 | 0.48 | 0.474 | 0.412 | 0.4008 | 0.382 | 0.3772 | 0.376
100 µM, coculture fibroblast: HADF | 0.7999 | 0.614 | 0.541 | 0.51 | 0.488 | 0.482 | 0.458 | 0.451 | 0.43
100 µM, coculture fibroblast: HCFa | 0.753 | 0.623 | 0.577 | 0.533 | 0.49 | 0.484 | 0.47 | 0.466 | 0.44
100 µM, coculture fibroblast: HCPF | 0.89 | 0.639 | 0.5206 | 0.5021 | 0.454 | 0.442 | 0.452 | 0.421 | 0.42
100 µM, coculture fibroblast: HHSteC | 0.783 | 0.595 | 0.542 | 0.515 | 0.491 | 0.475 | 0.463 | 0.453 | 0.437
100 µM, coculture fibroblast: HMF | 0.849 | 0.56 | 0.488 | 0.473 | 0.425 | 0.405 | 0.394 | 0.38 | 0.37
100 µM, coculture fibroblast: HPFa | 0.7462 | 0.597 | 0.552 | 0.513 | 0.485 | 0.472 | 0.449 | 0.438 | 0.414
100 µM, coculture fibroblast: HUF | 0.753 | 0.583 | 0.586 | 0.491 | 0.445 | 0.429 | 0.411 | 0.408 | 0.403
100 µM, coculture fibroblast: Hs27A | 0.871 | 0.74 | 0.685 | 0.645 | 0.619 | 0.622 | 0.586 | 0.575 | 0.54
100 µM, coculture fibroblast: Hs343T | 0.8483 | 0.485 | 0.375 | 0.357 | 0.315 | 0.299 | 0.291 | 0.275 | 0.274
100 µM, coculture fibroblast: WS1 | 0.74 | 0.61 | 0.581 | 0.466 | 0.416 | 0.405 | 0.384 | 0.386 | 0.383
